Test results published in patent US20250144209A1 (Alector, published 2025).
No constants are given. Whether binding was seen depends on the method and setting. Some results given as binding are weak or reduced against the parent protein; the word gives no strength. One block for each binder: values may come before it.

Protein sequences, listed by entry. Tags and fused reporters are not part of them. Lines headed by an entry give the natural chain unless they say otherwise; changes in a name come on top.
UniProt P78324: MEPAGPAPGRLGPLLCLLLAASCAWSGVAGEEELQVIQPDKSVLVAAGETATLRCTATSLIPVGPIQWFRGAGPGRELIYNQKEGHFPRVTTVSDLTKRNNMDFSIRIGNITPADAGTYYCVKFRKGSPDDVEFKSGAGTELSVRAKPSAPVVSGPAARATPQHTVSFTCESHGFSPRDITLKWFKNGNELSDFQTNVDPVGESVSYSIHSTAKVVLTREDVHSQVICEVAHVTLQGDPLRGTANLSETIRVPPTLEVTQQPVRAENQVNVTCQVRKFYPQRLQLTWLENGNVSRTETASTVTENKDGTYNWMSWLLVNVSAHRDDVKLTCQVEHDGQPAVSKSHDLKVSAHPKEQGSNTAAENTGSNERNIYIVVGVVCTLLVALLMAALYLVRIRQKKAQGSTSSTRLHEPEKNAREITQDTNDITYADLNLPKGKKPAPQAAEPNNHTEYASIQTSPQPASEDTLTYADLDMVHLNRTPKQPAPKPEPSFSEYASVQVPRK

Key:
[1] = biological target: T1, human SIRPA expressed on cells (human, UniProt P78324 31-504); experiment: flow cytometry on primary human macrophages
[2] = biological target: T1, human SIRPA expressed on cells; experiment: flow cytometry on CHO-huSIRPA cells
[3] = biological target: T1, human SIRPA expressed on cells; experiment: FACS of peripheral blood cells of huSIRPA-tg mice dosed with 10 mg/kg 3F9
[4] = biological target: T1, human SIRPA expressed on cells; experiment: FACS of blood and spleen cells of dosed huSIRPA-tg mice
[5] = biological target: T1, human SIRPA expressed on cells; experiment: cell-based binding assay (FIG. 15B)
[6] = biological target: human SIRPA-DAP12 chimera expressed on BWZ/NFAT-luciferase reporter cells (human) (UniProt O43914); experiment: flow cytometry on BWZ-Human SIRPA cells, titrated antibody detected with anti-mouse IgG APC (Relative MFI)

- binding [1]: binds
- binding [2]: binds
B1: 9C2 (antibody, IgG1, V domains shown)
VH: EFQLQQSGAELVKPGASVKISCKASGYSLTGYNMNWVKQSRGKSLEWIGNINPHYGSSTYNQNFKDKATLTVDKSSSAAYMQFNSLTSEDSAVYYCAREGYDGVFDYWGQGTTLTVSS
VL: QIVLSQSPAILSASPGEKVTMTCRASSSVSYMHWYQQKPGSSPKPWIYVTSNLASGVPTRFSGSGSGTSYSLTISRVEAEDAATYYCQQWSSNPRTFGGGTKLEIK
notes: also called anti-SIRPA antibody 9C2; 9C2-DyLight 650

- binding [1]: binds
- binding [3]: binds
- binding [2]: binds
- binding [4]: binds
- binding [5]: binds
- binding [6]: binds
B2: 3F9 (antibody, IgG1, V domains shown)
VH: EVKLVESGGGLVKPGGSLKLSCAASGFTFSSYAMSWVRQTPEKRLEWVATISDYGGSYTYYPDSVKGRFTISRDNAKYTLYLQMSSLRSEDTALYYCARPPYDDYYGGFAYWGQGTLVTVSA
VL: DIVLTQSPASLAVSLGQRATISCRASKSVSSSGYSYMHWYQQKPGQPPKLLIYLASNLESGVPARFSGSGSGTDFTLNIHPVEEEDAATYYCQHNRELPCTFGGGTKLEIK
notes: also called anti-SIRPA antibody 3F9; glycosylated 3F9
